In the supplement of paper PMC3334620:
In all, about 33,000 sequences were measured (“E-score (-0.5 to 0.5)”: median about -0.016, highest 2% from about 0.3 on). This is one part of the list.

Target: T1, Yer184c (UniProt P39961)
T1 sequence: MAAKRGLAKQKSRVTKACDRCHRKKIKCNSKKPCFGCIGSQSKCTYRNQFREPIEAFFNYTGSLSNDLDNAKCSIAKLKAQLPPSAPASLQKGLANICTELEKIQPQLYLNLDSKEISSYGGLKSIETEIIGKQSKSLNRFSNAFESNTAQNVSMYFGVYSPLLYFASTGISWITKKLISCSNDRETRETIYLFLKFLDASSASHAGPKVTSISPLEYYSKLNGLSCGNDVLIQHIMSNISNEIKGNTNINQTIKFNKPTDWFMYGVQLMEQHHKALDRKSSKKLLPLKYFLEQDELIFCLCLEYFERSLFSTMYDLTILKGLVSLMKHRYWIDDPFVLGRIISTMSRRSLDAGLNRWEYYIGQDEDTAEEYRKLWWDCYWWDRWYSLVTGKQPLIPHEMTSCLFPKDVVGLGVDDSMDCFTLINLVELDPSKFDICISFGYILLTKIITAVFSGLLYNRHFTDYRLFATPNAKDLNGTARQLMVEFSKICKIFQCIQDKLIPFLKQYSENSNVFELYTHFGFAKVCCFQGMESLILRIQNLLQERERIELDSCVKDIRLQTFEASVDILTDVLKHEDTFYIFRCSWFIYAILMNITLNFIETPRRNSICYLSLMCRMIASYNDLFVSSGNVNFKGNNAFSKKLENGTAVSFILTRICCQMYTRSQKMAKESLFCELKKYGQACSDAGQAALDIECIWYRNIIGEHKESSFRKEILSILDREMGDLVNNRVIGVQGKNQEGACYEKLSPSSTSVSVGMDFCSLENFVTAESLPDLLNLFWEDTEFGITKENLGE
Experiment: PBM E-score (8-mer binding enrichment) (E-score (-0.5 to 0.5)); higher = stronger / more preferred TF binding
Settings: protein concentration: 100 nM; construct: GST-full length
Description: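 Universal 'all 10-mer' protein binding microarrays (Agilent AMADID 015681) probed with GST-tagged S. cerevisiae TFs (full-length or DBD) made by in vitro transcription/translation (PURExpress), about 100-200 nM. Bound TF was detected with fluorescent anti-GST. Each ungapped 8-mer (which stands for itself and its reverse complement) is scored by the PBM enrichment score (E-score), a modified Wilcoxon-Mann-Whitney statistic from -0.5 to +0.5, computed with the Universal PBM Analysis Suite. Scale: above 0.35 generally sequence-specific binding.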

Sequence | PBM E-score
CCCATGCC | -0.0347
CAGCAGCC | -0.134
CGTACCAC | -0.0819
GCTACCCC | -0.247
AGTGACCA | -0.113
GGCGCGAA | 0.165
ATATATTA | 0.25
GTGAACAC | 0.00676
TCTTAGCA | -0.00501
AGTAAGTG | -0.0727
CGCGCGAC | 0.0196
ACACTGTG | -0.0632
AAAGGGGA | -0.159
TCCGAACA | 0.299
ACACGCAC | -0.157
CGTACGAC | -0.143
CAGATCAC | -0.0916
GGAGTCGA | -0.134
CGTAATTA | 0.043
CGATGGAG | 0.1
CGGCAGGC | 0.165
AGGCAAGG | -0.328
ACATATAC | -0.0123
ACTGGGAT | -0.0341
ATGGACGG | 0.128

A run of entries taken from the entries so far, for reference:
Sequence | PBM E-score
GGAGTCGA | -0.134
CGTAATTA | 0.043

Next entries

Sequence | PBM E-score
CGGCGGGC | 0.142
GGTAGTTA | -0.119
ACGCTGGG | -0.282
GTGATTCA | -0.131
ATGCGAGA | -0.0136
ACGACGCC | -0.156
CCGCTGCC | -0.104
CAAATACC | 0.00872
CAGTCCGC | -0.0716
CACCGTGG | -0.222
AGCTAAAG | -0.0644
GGCTGCGA | -0.00955
CATCAAAG | -0.0488
AAACCTTA | 0.0624
AAACTATA | 0.0975
ACTACGTG | -0.343
GAGATCTC | 0.051
ATCCTGTA | 0.0808
AGCAAATG | -0.155
GGCATTAC | 0.195
TAGAGACA | 0.0376
ATCGTGAG | -0.0573
CGCGTCAA | -0.0817
ATACTAAA | 0.239
AGCCAAAC | -0.0354

Sequence | PBM E-score
CGAATCTC | 0.0585
CTGCGTCC | -0.147
CAATCGGG | 0.0138
GGCTTTAA | 0.138
ATGGTGGC | -0.362
GGAACGGA | 0.246
AAAAGTGA | 0.0899
GAGTCATA | -0.0293
ATATTTAC | 0.202
CGCCTAGC | -0.33
GCACGCAA | -0.206
AGTAACAA | 0.179
CGCCTACA | -0.216
CTACAGAG | 0.0273
GGAATATA | 0.227
TATGTAGA | 0.00224
AGATGAGC | -0.012
CACGAGGA | -0.0877
CCGAGCTA | 0.156
CATGCAAG | -0.197
AGGTTAGA | -0.138
AGTTCACA | 0.0196
TCAATCAA | 0.0772
CGTGCCTA | -0.265
CTCAGGCC | -0.206

Sequence | PBM E-score
ATCCCCCC | -0.411
CGTATATC | -0.0616
ACCGCAAC | 0.131
CGCCAGGC | -0.0259
CTTTTCCA | -0.0613
ACTCCGCT | -0.179
AGTACTCG | 0.154
AAGTGAAG | -0.191
AAACGGCT | 0.0042
ATGGAGTG | -0.287
ACTATCAT | 0.109
TAGGGGAA | -0.226
ACAGTCCC | -0.219
GCATGCAC | -0.0845
CCGAATCA | 0.233
GCCATTAA | 0.0964
GCGTTATA | -0.134
GACTCCCA | -0.249
TACGTGCA | -0.0962
CACATCAA | 0.106
GACACGAA | -0.0596
GGGTCGTA | -0.106
CATGGGTC | -0.166
GAATCAAC | 0.189
AGCTCTAG | -0.102

A few values from the entries so far.
Value for CGTACCAC under PBM E-score: -0.0819
Value for CGCCTACA under PBM E-score: -0.216
Value for CGTGCCTA under PBM E-score: -0.265
Value for CCGAATCA under PBM E-score: 0.233
Value for ACAGTCCC under PBM E-score: -0.219

(continued)

Sequence | PBM E-score
CCTTGAAG | -0.104
ACCCCATA | -0.0964
AGAAGGAT | -0.289
ATGGGCCC | -0.154
CAACGGAC | 0.261
CTTCGTGC | 0.0236
AGGGCGTC | -0.0854
TCCCGACA | 0.00216
AGACTTCA | -0.141
AATAAGAA | 0.252
AAAGAATA | 0.0611
GTCCTCTA | -0.198
TAGCCTCA | -0.0571
GGCGACTA | -0.13
CTCAATCC | 0.11
ACGCCAGC | -0.168
ATTTTACA | -0.13
CTCCCCTA | -0.121
CGCTTGCA | -0.0818
CGCCGCAG | -0.0397
AAAACACC | 0.0588
ACGACAAA | 0.252
CTTCAGCC | -0.0846
ACGTAGCG | -0.237
TACCACAA | 0.168

Sequence | PBM E-score
AGCAGGCA | -0.248
TCCTAACA | 0.0715
AGTCGATC | -0.085
AATTGGTA | 0.00848
CCATTAGC | -0.16
GCTGTCTA | -0.0379
CGATTCAG | 0.0265
CAAGGTCG | -0.272
AAGAGTCT | -0.24
CGAGTTAA | 0.161
CACTGAAG | 0.0984
CGGGCCTC | 0.0573
ACCGAACC | 0.0575
ATGCTAGA | -0.0395
GGCGTATA | -0.0214
AAGTTATA | 0.232
ACGGAGAC | 0.192
GCTAGCGA | -0.147
ACAAAGCG | 0.0829
GATTAACA | 0.2
ATGGATGG | -0.177
CGGCTCGA | 0.291
ATTACCGG | 0.22
TCTAGTAA | 0.0542
CATCCTGG | -0.0767

Sequence | PBM E-score
ACAGCCGT | 0.126
CGTAGGAA | -0.123
ATTAGCAG | -0.021
AGTTTCGA | -0.0388
CCATTGGC | -0.0903
AGACCTGG | -0.297
TCATTAGA | 0.0435
TCGCGCCA | -0.0517
ATTACTAC | -0.0348
ATGCTTTC | 0.0492
AAAAGAAG | 0.148
GGTATTTA | 0.0683
ACGGACCG | 0.193
GAACTTGA | 0.239
AGGTGGTG | -0.157
CTATAGAA | 0.0508
GATGATCC | 0.122
CTAACCGC | -0.0947
CCGGAGAG | 0.187
ACTCGGGC | 0.0253
ATTTCCCC | -0.166
GTTGTCGA | -0.0791
GATGCACA | -0.145
ATGATGTA | 0.0881
AGCACATA | 0.0135

Sequence | PBM E-score
ATAAGAAA | 0.232
ACTAACCG | 0.175
ACCCGAGT | 0.0508
TACCTACA | 0.0256
AACTTTCC | 0.0363
TTATCGAA | 0.175
CTAACTCC | -0.121
ATCGTAGA | -0.193
AACGAAAA | 0.0387
AACGAGAA | 0.0494
CTTACGTA | -0.0591
TAGTCGGA | 0.212
GAACGAGC | 0.0546
AGGGTCGC | -0.0902
AATAAGCA | 0.131
CCGGGCTC | 0.288
ACGCCAAG | -0.211
AACTGGAC | -0.147
ACTGGGGA | -0.347
ATACGCAA | -0.00166
AGTCTTGA | -0.103
AAGAAGCG | -0.133
CGATTCAC | -0.0394
AGGACACG | -0.159
AATTATCA | 0.221

Sequence | PBM E-score
CTAACGTC | 0.0536
CGCTGGAG | -0.0527
CACGAACG | 0.0597
ACCGCCTG | -0.103
ATCTACCA | -0.0467
GAGTGACA | 0.0161
GAGGACTA | -0.107
ATGCCTAA | -0.0815
GCGGGAAC | -0.00769
GATGGTGA | -0.145
CCCACCAC | -0.151
AACCTCCA | -0.273
GACTGCGA | -0.17
TAGATAGA | -0.0868
TCATTCGA | 0.0699
CCAACGCC | -0.0839
ATTGCAAC | 0.0297
AAACCGGG | 0.0839
CAAGCTGG | -0.129
